According to patent publication US6727285B1, “Use of D-arginine and/or L-arginine to protect the amino groups of biological substances from damage, inactivation, or modification by toxic carbonyls and/or dicarbonyls” (priority 1995, dated 2004):

Tested on: bovine serum albumin
Assay: Blocking of methylglyoxal or glyoxal cross-linking (gel formation) of albumin, inventor's tests
Format: biochemical
Conditions: arginines: hydrochloride salts and free base forms

## NCCC[C@H](N)C(=O)O [ornithine, reference compound]
  blocking of the cross-linking of albumin by methylglyoxal or glyoxal: do not block
